Test results reported in paper PMC12501252.

T1: CHCHD10 (human) (human (endogenous in HEK293T)) (UniProt Q8WYQ3)
T1 sequence: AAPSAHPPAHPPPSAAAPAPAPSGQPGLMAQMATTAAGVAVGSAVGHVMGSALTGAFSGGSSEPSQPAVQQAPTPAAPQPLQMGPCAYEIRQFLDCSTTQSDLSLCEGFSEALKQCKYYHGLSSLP

T2: CHCHD2 (human) (human (endogenous in HEK293T)), Q9Y6H1
T2 chain: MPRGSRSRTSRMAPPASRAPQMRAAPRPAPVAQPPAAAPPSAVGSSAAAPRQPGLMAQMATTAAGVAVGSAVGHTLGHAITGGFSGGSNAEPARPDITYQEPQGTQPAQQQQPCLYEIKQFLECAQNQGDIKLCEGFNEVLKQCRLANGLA

T3: CHCHD2 (human) (human (endogenous in HEK293T)) (UniProt Q9Y6H1)
T3 sequence: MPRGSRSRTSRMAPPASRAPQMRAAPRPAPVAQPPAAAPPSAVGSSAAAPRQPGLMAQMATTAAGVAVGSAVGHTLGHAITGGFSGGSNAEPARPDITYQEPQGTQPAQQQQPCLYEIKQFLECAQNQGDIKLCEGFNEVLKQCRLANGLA


Experiments:
Test in all cases: affinity purification with mass spectrometry; endogenous CHCHD2 or CHCHD10 immunoprecipitated with antibodies on Dynabeads Protein G from mitochondria of HEK293T cells lysed in 10 mM Tris-HCl pH 7.5, 150 mM NaCl, 1% digitonin; beads analysed by label-free quantitative mass spectrometry
[1] = biological target: T1, CHCHD10 (human) (human (endogenous in HEK293T))
[2] = biological target: T2, CHCHD2 (human) (human (endogenous in …)); details: remark: other sources report otherwise
[3] = biological target: T3, CHCHD2 (human) (human (endogenous in HEK293T))

binding [1]	binding [2]	binding [3]	Molecule
binds			rhomboid protease PARL (human (endogenous in HEK293T)) (enzyme)
	binds		stomatin-like protein 2 (SLP2), Q9UJZ1 29-356 (protein) SSGLPRNTVVLFVPQQEAWVVERMGRFHRILEPGLNILIPVLDRIRYVQSLKEIVINVPEQSAVTLDNVTLQIDGVLYLRIMDPYKASYGVEDPEYAVTQLAQTTMRSELGKLSLDKVFRERESLNASIVDAINQAADCWGIRCLRYEIKDIHVPPRVKESMQMQVEAERRKRATVLESEGTRESAINVAEGKKQAQILASEAEKAEQINQAAGEASAVLAKAKAKAEAIRILAAALTQHNGDAAASLTVAEQYVSAFSKLAKDSNTILLPSNPGDVTSMVAQAMGVYGALTKAPVPGTPDSLSSGSSRDVQGTDASLDEELDRVKMS
binds		binds	GHITM (TMBIM5 or MICS1) (protein, UniProt Q9H3K2 46-345) ATKTRIGIRRGRTGQELKEAALEPSMEKIFKIDQMGRWFVAGGAAVGLGALCYYGLGLSNEIGAIEKAVIWPQYVKDRIHSTYMYLAGSIGLTALSAIAISRTPVLMNFMMRGSWVTIGVTFAAMVGAGMLVRSIPYDQSPGPKHLAWLLHSGVMGAVVAPLTILGGPLLIRAAWYTAGIVGGLSTVAMCAPSEKFLNMGAPLGVGLGLVFVSSLGSMFLPPTTVAGATLYSVAMYGGLVLFSMFLLYDTQKVIKRAEVSPMYGVQKYDPINSMLSIYMDTLNIFMRVATMLATGGNRKK

These are yes or no findings as the source states them, for the method shown. Binding seen in cells or lysates may run through a third protein. Here binding means that the protein was enriched with, or labelled near, the bait; the list need not be complete.
